Test results published in PubChem BioAssay AID485298 (National Center for Advancing Translational Sciences (NCATS), 2010).
Hit rate of the full screen: of about 320,000 compounds, about 740 (0.23%) were called active. This list was built around the results that the source calls inconclusive (neither active nor inactive); the mix of calls is not that of the screen. Calls follow the shape of the dose curve; as a rule, active = well fitted activation curve with a large enough effect; inconclusive = small, poorly fitted or top-dose-only effect; inactive = no such curve, though single readings can be large or run the other way. Where the call is inconclusive, the potency comes from a doubtful curve fit.

Experiment: qHTS Assay for Small Molecule Inhibitors of Mitochondrial Division or Activators of Mitochondrial Fusion; also: nearly all actives have a fitted effect of over 45% in size; as to growth rescue (activation): % of control where 0% means no effect
Conditions: S. cerevisiae fusion-defective mutant growth rescue, CellTiterGlo 48 h; growth rescue (activation): at 46.1 µM (top of the series) unless noted
Method in brief: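 Temperature-sensitive fusion-defective S. cerevisiae (e.g. fzo1-1, mgm1-5) were grown with compound in YPEG medium (3% ethanol, 3% glycerol) for 48 hours at 37C. Growth rescue was measured as viability by CellTiterGlo luminescence after 10 minutes at ambient.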
Potency is read from the fitted curve at half-maximal effect.

Compound | Potency | growth rescue (activation)
CCCNC(=O)c1ccc(N2CCC3(CC2)CC(c2cccc(Br)c2)=NO3)c(N)c1 | inconclusive: 12.6 µM [activator, partial curve] | 
Cc1ccccc1COC(=O)CCCC1=NS(=O)(=O)c2ccccc2N1 |  | inactive: -3.94%
CC1=CC(C)(C)N2C(=O)C3(C(C#N)=C(N)OC4=C3C(=O)CCC4)c3c(C)c(C)cc1c32 (centres undefined) |  | inactive: 0.237%
O=C(NCc1cccnc1)c1ccc(-c2cc(Cl)ccc2Cl)o1 | inconclusive: 14.1 µM [activator, single point] | 
O=C(Nc1cc(Cl)ccc1O)C1CC(c2ccccc2Cl)=NO1 (centres undefined) | inconclusive: 12.6 µM [activator, partial curve] | 
COC(=O)c1cccc(NC(=O)c2cc(OC)c(OC)c(OC)c2Br)c1 | inconclusive: 25.1 µM [activator, single point] | 
COc1ccc(-c2ccc(CCC(=O)O)n2-c2ccccc2OC)cc1 |  | inactive: 3.4%
Cc1cccc(OCC(=O)Nc2ccc3c(c2)nc(CCN2CCCCC2)n3C)c1 | inconclusive: 35.5 µM [activator, partial curve] | 
Cc1ccc(S(=O)(=O)Nc2ccc(N=Nc3ccc(O)cc3)cc2)cc1 | active: 20 µM | 
Cc1cc(NCCNC2=CC(=O)CCC2)nc2ccccc12 |  | inactive: 4.63%
CC(OC(=O)c1cccc([N+](=O)[O-])c1)C(=O)N1CCc2ccccc21 (centres undefined) | inconclusive: 7.94 µM [activator, partial curve] | 
O=C(COc1ccc(Br)cc1)NCCCn1ccnc1 | inconclusive: 6.31 µM [activator, single point] | 
O=C(NC(=S)N1CCCCC1c1cccnc1)c1ccc(F)cc1 (centres undefined) |  | inactive: -6.66%
CC1CCN(c2c([N+](=O)[O-])nn(-c3ccc4c(c3)OCCO4)[n+]2[O-])CC1 | inconclusive: 35.5 µM [activator, single point] | 
Cc1ccc(S(=O)(=O)N2CCN(CCOc3c(Cl)cccc3Cl)CC2)cc1C | inconclusive: 35.5 µM [activator, single point] | 
O=C(O)/C=C/c1ccc(S(=O)(=O)Nc2ccc(OCc3ccccc3)cc2)cc1 |  | inactive: 2.93%
Cc1cccc([N+](=O)[O-])c1NC(=O)CN(Cc1ccccc1)Cc1ccccc1 | inconclusive: 10 µM [activator, partial curve] | 
Cc1ccc(-c2nnc(CSc3nnc(COc4ccccc4)n3-c3ccc(C)cc3)o2)cc1 | inconclusive: 7.94 µM [activator, partial curve] | 
CC1CCN(S(=O)(=O)c2ccc(NC(=O)Cc3ccccc3)cc2)CC1 | inconclusive: 22.4 µM [activator, single point] | 

Sorted by count of non-hydrogen atoms (smallest number first): three of the compounds above.
Compound | Potency | growth rescue (activation)
Cc1cc(NCCNC2=CC(=O)CCC2)nc2ccccc12 |  | inactive: 4.63%
Cc1ccccc1COC(=O)CCCC1=NS(=O)(=O)c2ccccc2N1 |  | inactive: -3.94%
CC1=CC(C)(C)N2C(=O)C3(C(C#N)=C(N)OC4=C3C(=O)CCC4)c3c(C)c(C)cc1c32 (centres undefined) |  | inactive: 0.237%
